# Reference: the supplement of paper PMC8728848
# Some of the results follow.
# Tests used:
# Experiment in all cases: glycan array binding signal (z-score within array); higher = stronger binding
# Settings in all cases: glycan notation: IUPAC condensed, linker removed
# [1] = target: GlcNAc(b1-2)Gal(b1-3)GalNAc
# In short: (§1)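 The binding signal is a Z-score computed within each array. Data were drawn from 3228 arrays in the Consortium for Functional Glycomics database, restricted to those with a known protein sequence. Scores were averaged over arrays of the same protein sequence at different concentrations or buffers, and over linkers, and negative values can be taken as non-binding.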
# [2] = target: GlcNAc(b1-2)Man(a1-3)[GlcNAc(b1-2)Man(a1-6)]Man(b1-4)GlcNAc(b1-4)GlcNAc
# In short: as §1
# [3] = target: GlcNAc(b1-2)Man(a1-3)[GlcNAc(b1-2)Man(a1-6)]Man(b1-4)GlcNAc(b1-4)[Fuc(a1-6)]GlcNAc
# In short: as §1
# [4] = target: GlcNAc(b1-2)Man(a1-3)[GlcNAc(b1-4)][GlcNAc(b1-2)Man(a1-6)]Man(b1-4)GlcNAc(b1-4)GlcNAc
# In short: as §1
# [5] = target: GlcNAc(b1-2)Man(a1-3)[GlcNAc(b1-4)][GlcNAc(b1-2)Man(a1-6)]Man(b1-4)GlcNAc(b1-4)[Fuc(a1-6)]GlcNAc
# In short: as §1
# [6] = target: GlcNAc(b1-2)[GlcNAc(b1-4)]Man(a1-3)[GlcNAc(b1-2)Man(a1-6)]Man(b1-4)GlcNAc(b1-4)GlcNAc
# In short: as §1
# [7] = target: GlcNAc(b1-2)[GlcNAc(b1-4)]Man(a1-3)[GlcNAc(b1-4)][GlcNAc(b1-2)Man(a1-6)]Man(b1-4)GlcNAc(b1-4)GlcNAc
# In short: as §1
# [8] = target: GlcNAc(b1-2)[GlcNAc(b1-4)]Man(a1-3)[GlcNAc(b1-4)][GlcNAc(b1-2)[GlcNAc(b1-6)]Man(a1-6)]Man(b1-4)GlcNAc(b1-4)GlcNAc
# In short: as §1
# [9] = target: GlcNAc(b1-2)[GlcNAc(b1-4)]Man(a1-3)[GlcNAc(b1-4)][GlcNAc(b1-2)[GlcNAc(b1-6)]Man(a1-6)]Man(b1-4)GlcNAc(b1-4)[Fuc(a1-6)]GlcNAc
# In short: as §1
# [10] = target: GlcNAc(b1-2)[GlcNAc(b1-6)]Man(a1-6)[GlcNAc(b1-2)Man(a1-3)]Man(b1-4)GlcNAc(b1-4)GlcNAc
# In short: as §1
# [11] = target: GlcNAc(b1-2)[GlcNAc(b1-6)]Man(a1-6)[GlcNAc(b1-2)Man(a1-3)]Man(b1-4)GlcNAc(b1-4)[Fuc(a1-6)]GlcNAc
# In short: as §1
# [12] = target: GlcNAc(b1-2)[GlcNAc(b1-6)]Man(a1-6)[GlcNAc(b1-4)][GlcNAc(b1-2)Man(a1-3)]Man(b1-4)GlcNAc(b1-4)GlcNAc
# In short: as §1
# [13] = target: GlcNAc(b1-3)Fuc
# In short: as §1
# [14] = target: GlcNAc(b1-3)Gal
# In short: as §1
# [15] = target: GlcNAc(b1-3)Gal(b1-3)GalNAc
# In short: as §1
# [16] = target: GlcNAc(b1-3)Gal(b1-4)Glc
# In short: as §1
# [17] = target: GlcNAc(b1-3)Gal(b1-4)GlcNAc
# In short: as §1
# [18] = target: GlcNAc(b1-3)Gal(b1-4)GlcNAc(b1-2)Man(a1-3)[GlcNAc(b1-3)Gal(b1-4)GlcNAc(b1-2)Man(a1-6)]Man(b1-4)GlcNAc(b1-4)GlcNAc
# In short: as §1
# [19] = target: GlcNAc(b1-3)Gal(b1-4)GlcNAc(b1-2)Man(a1-3)[GlcNAc(b1-3)Gal(b1-4)GlcNAc(b1-2)Man(a1-6)]Man(b1-4)GlcNAc(b1-4)[Fuc(a1-6)]GlcNAc
# In short: as §1
# [20] = target: GlcNAc(b1-3)Gal(b1-4)GlcNAc(b1-2)[GlcNAc(b1-3)Gal(b1-4)GlcNAc(b1-6)]Man(a1-6)[GlcNAc(b1-3)Gal(b1-4)GlcNAc(b1-2)Man(a1-3)]Man(b1-4)GlcNAc(b1-4)GlcNAc
# In short: as §1
# [21] = target: GlcNAc(b1-3)Gal(b1-4)GlcNAc(b1-3)Gal(b1-4)GlcNAc
# In short: as §1
# [22] = target: GlcNAc(b1-3)Gal(b1-4)GlcNAc(b1-3)Gal(b1-4)GlcNAc(b1-2)Man(a1-3)[GlcNAc(b1-3)Gal(b1-4)GlcNAc(b1-3)Gal(b1-4)GlcNAc(b1-2)Man(a1-6)]Man(b1-4)GlcNAc(b1-4)GlcNAc
# In short: as §1
# [23] = target: GlcNAc(b1-3)Gal(b1-4)GlcNAc(b1-3)Gal(b1-4)GlcNAc(b1-2)Man(a1-3)[GlcNAc(b1-3)Gal(b1-4)GlcNAc(b1-3)Gal(b1-4)GlcNAc(b1-2)Man(a1-6)]Man(b1-4)GlcNAc(b1-4)[Fuc(a1-6)]GlcNAc
# In short: as §1
# [24] = target: GlcNAc(b1-3)Gal(b1-4)GlcNAc(b1-3)Gal(b1-4)GlcNAc(b1-2)[GlcNAc(b1-3)Gal(b1-4)GlcNAc(b1-3)Gal(b1-4)GlcNAc(b1-6)]Man(a1-6)[GlcNAc(b1-3)Gal(b1-4)GlcNAc(b1-3)Gal(b1-4)GlcNAc(b1-2)Man(a1-3)]Man(b1-4)GlcNAc(b1-4)[Fuc(a1-6)]GlcNAc
# In short: as §1
# [25] = target: GlcNAc(b1-3)Gal(b1-4)GlcNAc(b1-3)Gal(b1-4)GlcNAc(b1-3)Gal(b1-4)GlcNAc(b1-2)Man(a1-3)[GlcNAc(b1-3)Gal(b1-4)GlcNAc(b1-3)Gal(b1-4)GlcNAc(b1-3)Gal(b1-4)GlcNAc(b1-2)Man(a1-6)]Man(b1-4)GlcNAc(b1-4)GlcNAc
# In short: as §1
# [26] = target: GlcNAc(b1-3)Gal(b1-4)GlcNAc(b1-3)Gal(b1-4)GlcNAc(b1-3)Gal(b1-4)GlcNAc(b1-2)Man(a1-3)[GlcNAc(b1-3)Gal(b1-4)GlcNAc(b1-3)Gal(b1-4)GlcNAc(b1-3)Gal(b1-4)GlcNAc(b1-2)Man(a1-6)]Man(b1-4)GlcNAc(b1-4)[Fuc(a1-6)]GlcNAc
# In short: as §1
# [27] = target: GlcNAc(b1-3)Gal(b1-4)GlcNAc(b1-3)Gal(b1-4)GlcNAc(b1-3)Gal(b1-4)GlcNAc(b1-2)[GlcNAc(b1-3)Gal(b1-4)GlcNAc(b1-3)Gal(b1-4)GlcNAc(b1-3)Gal(b1-4)GlcNAc(b1-6)]Man(a1-6)[GlcNAc(b1-3)Gal(b1-4)GlcNAc(b1-3)Gal(b1-4)GlcNAc(b1-3)Gal(b1-4)GlcNAc(b1-2)Man(a1-3)]Man(b1-4)GlcNAc(b1-4)[Fuc(a1-6)]GlcNAc
# In short: as §1
# [28] = target: GlcNAc(b1-3)Gal(b1-4)GlcNAc(b1-3)Gal(b1-4)GlcNAc(b1-3)Gal(b1-4)GlcNAc(b1-3)Gal(b1-4)GlcNAc(b1-2)Man(a1-3)[GlcNAc(b1-3)Gal(b1-4)GlcNAc(b1-3)Gal(b1-4)GlcNAc(b1-3)Gal(b1-4)GlcNAc(b1-3)Gal(b1-4)GlcNAc(b1-2)Man(a1-6)]Man(b1-4)GlcNAc(b1-4)GlcNAc
# In short: as §1
# [29] = target: GlcNAc(b1-3)Gal(b1-4)GlcNAc(b1-3)Gal(b1-4)GlcNAc(b1-3)Gal(b1-4)GlcNAc(b1-3)Gal(b1-4)GlcNAc(b1-2)Man(a1-3)[GlcNAc(b1-3)Gal(b1-4)GlcNAc(b1-3)Gal(b1-4)GlcNAc(b1-3)Gal(b1-4)GlcNAc(b1-3)Gal(b1-4)GlcNAc(b1-2)Man(a1-6)]Man(b1-4)GlcNAc(b1-4)[Fuc(a1-6)]GlcNAc
# In short: as §1
# [30] = target: GlcNAc(b1-3)Gal(b1-4)GlcNAc(b1-3)Gal(b1-4)GlcNAc(b1-3)Gal(b1-4)GlcNAc(b1-3)Gal(b1-4)GlcNAc(b1-2)[GlcNAc(b1-3)Gal(b1-4)GlcNAc(b1-3)Gal(b1-4)GlcNAc(b1-3)Gal(b1-4)GlcNAc(b1-3)Gal(b1-4)GlcNAc(b1-6)]Man(a1-6)[GlcNAc(b1-3)Gal(b1-4)GlcNAc(b1-3)Gal(b1-4)GlcNAc(b1-3)Gal(b1-4)GlcNAc(b1-3)Gal(b1-4)GlcNAc(b1-2)Man(a1-3)]Man(b1-4)GlcNAc(b1-4)[Fuc(a1-6)]GlcNAc
# In short: as §1
binder,measurement,setting,value
"Protein L(A-C2) (Finegoldia magna), Q51912 (protein) ADEPIDLEKLEEKRDKENVGNLPKFDNEVKDGSENPMAKYPDFDDEASTRFETENNEFEEKKVVSDNFFDQSEHPFVENKEETPETPETDSEEEVTIKANLIFANGSTQTAEFKGTFEKATSEAYAYADTLKKDNGEYTVDVADKGYTLNIKFAGKEKTPEEPKEEVTIKANLIYADGKTQTAEFKGTFEEATAEAYRYADALKKDNGEYTVDVADKGYTLNIKFAGKEKTPEEPKEEVTIKANLIYADGKTQTAEFKGTFEEATAEAYRYADLLAKENGKYTVDVADKGYTLNIKFAGKEKTPEEPKEEVTIKANLIYADGKTQTAEFKGTFAEATAEAYRYADLLAKENGKYTADLEDGGYTINIRFAGKKVDEKPEEKEQVTIKENIYFEDGTVQTATFKGTFAEATAEAYRYADLLSKEHGKYTADLEDGGYTINIRFAGKEEPEETPEKPEVQDGYASYEEAEAAAKEALKNDDVNKSYTIRQGADGRYYYVLSPVEAEEEKPEAQNGYATYEEAEAAAKKALENDPINKSYSIRQGADGRYYYVLSPVEAE",glycan array binding signal (z-score),[1],-0.741
same,glycan array binding signal (z-score),[2],-0.516
same,glycan array binding signal (z-score),[3],2.85
same,glycan array binding signal (z-score),[4],0.244
same,glycan array binding signal (z-score),[5],-0.153
same,glycan array binding signal (z-score),[6],0.686
same,glycan array binding signal (z-score),[7],-0.355
same,glycan array binding signal (z-score),[8],0.025
same,glycan array binding signal (z-score),[9],-0.478
same,glycan array binding signal (z-score),[10],-0.785
same,glycan array binding signal (z-score),[11],-0.081
same,glycan array binding signal (z-score),[12],-0.53
same,glycan array binding signal (z-score),[13],-0.812
same,glycan array binding signal (z-score),[14],-0.986
same,glycan array binding signal (z-score),[15],0.092
same,glycan array binding signal (z-score),[16],-0.921
same,glycan array binding signal (z-score),[17],-0.623
same,glycan array binding signal (z-score),[18],-0.191
same,glycan array binding signal (z-score),[19],0.001
same,glycan array binding signal (z-score),[20],0.107
same,glycan array binding signal (z-score),[21],-0.561
same,glycan array binding signal (z-score),[22],1.91
same,glycan array binding signal (z-score),[23],2.42
same,glycan array binding signal (z-score),[24],0.33
same,glycan array binding signal (z-score),[25],0.676
same,glycan array binding signal (z-score),[26],0.203
same,glycan array binding signal (z-score),[27],0.83
same,glycan array binding signal (z-score),[28],0.576
same,glycan array binding signal (z-score),[29],1.02
same,glycan array binding signal (z-score),[30],1.26
